PubChem BioAssay AID1259254 | NCATS | 2017

Purpose: 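Finding genes that stop cells copying their DNA twice in one cycle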 (primary screen)
System: human HCT116 colorectal cancer cells
Reagent: single siRNA against human genes
Time to read-out: 3 days
Measured: 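Nuclei stained with Hoechst and imaged; cell-cycle phase assigned by DNA content; G2 share scaled per plate, non-targeting siRNA 0%, GMNN siRNA 100%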
Direction: G2 robust z-score: higher = more G2 cells, more excess DNA replication
Active means: 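An siRNA counts as active if its G2 robust z-score lies at least 5 MADs above the screen median; here such calls match roughly 38% of GMNN control or more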
The whole screen tested about 59,000 reagents; this is a random part of them. About 1,550 of them (2.6%) count as active. 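G2 share is only a proxy for re-replication; each gene was hit by three separate siRNAs, and active genes were retested.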 Entries without a mark were called inactive. The numbers tell different reagents against one gene apart. Further read-outs or replicates are left out here. Reagent sequences are not shown. The record does not give: the amount of reagent.

MAP9 (microtubule associated protein 9) #1 gave G2 robust z-score 0.00694.
Knock-down of MAP9 (microtubule associated protein 9) #2 came out at: G2 robust z-score 1.5.
MAP9 (microtubule associated protein 9) #3 showed G2 robust z-score 0.845.
RNF41 (ring finger protein 41) #1 scored G2 robust z-score -0.527.
RNF41 (ring finger protein 41) #2 scored G2 robust z-score 8.92 (active).
RNF41 (ring finger protein 41) #3 scored G2 robust z-score 0.646.
Depletion of ATG13 (autophagy related 13) #1 resulted in: G2 robust z-score 0.83.
For ATG13 (autophagy related 13) #2 the deposit lists G2 robust z-score 1.08.
Knock-down of ATG13 (autophagy related 13) #3 resulted in: G2 robust z-score 1.08.

2 entries from above in another layout:
gene symbol	reagent	G2 robust z-score
RNF41 (ring finger protein 41)	3	0.646
ATG13 (autophagy related 13)	1	0.83

Continued:
After knock-down of FASTKD3 (FASTK mitochondrial RNA regulator 3) #1, the screen gave G2 robust z-score 0.191.
Silencing of FASTKD3 (FASTK mitochondrial RNA regulator 3) #2 came out at: G2 robust z-score -0.365.
FASTKD3 (FASTK mitochondrial RNA regulator 3) #3 showed G2 robust z-score 0.828.
Against OR10G2 (olfactory receptor family 10 subfamily G member 2) #1, the entry reads G2 robust z-score 0.531.
After knock-down of OR10G2 (olfactory receptor family 10 subfamily G member 2) #2 the results were G2 robust z-score -0.788.
Depletion of OR10G2 (olfactory receptor family 10 subfamily G member 2) #3 gave: G2 robust z-score -0.631.
With knock-down of PTMAP11 (prothymosin alpha pseudogene 11) #1, the screen gave G2 robust z-score -0.241.
With knock-down of PTMAP11 (prothymosin alpha pseudogene 11) #2, the screen gave G2 robust z-score 3.6.
PTMAP11 (prothymosin alpha pseudogene 11) #3 scored G2 robust z-score -0.504.
With knock-down of GAS2L3 (growth arrest specific 2 like 3) #1, the screen gave G2 robust z-score -0.314.
Depletion of GAS2L3 (growth arrest specific 2 like 3) #2 came out at: G2 robust z-score 0.357.
After knock-down of GAS2L3 (growth arrest specific 2 like 3) #3, the screen gave G2 robust z-score 0.877.
With knock-down of NSFL1C (NSFL1 cofactor) #1, the screen gave G2 robust z-score 4.91.
NSFL1C (NSFL1 cofactor) #2 gave G2 robust z-score 0.0818.
Knock-down of NSFL1C (NSFL1 cofactor) #3 gave: G2 robust z-score 0.163.
